The target of this assay is humanized recombinant protein TRAILR2 (human (printed as "humanized recombinant protein TRAILR2")) (UniProt O14763). The assay is described as follows: ELISA, plate coated with 2 ug/ml recombinant TRAILR2. On the technique in general: An ELISA detects its analyte on a solid surface through an enzyme-linked reagent.

Chains of the proteins cited; added tags and fusions are not shown. Residues count along the entry.
UniProt O14763, residues 56-182: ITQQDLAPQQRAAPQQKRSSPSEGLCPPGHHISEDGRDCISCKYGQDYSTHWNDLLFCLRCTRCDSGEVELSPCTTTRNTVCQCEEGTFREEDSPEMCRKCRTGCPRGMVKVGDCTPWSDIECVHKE

These are yes or no findings as the source states them, for the method shown. Some binding calls cover weakened binding; strength is not graded here.

B1: Zaptuzumab (antibody, V domains shown)
VH: QVQLVQSGSELKKPGASVKVSCKASGYTFTDFSMNWVRQAPGQGLEWMGWINTETGEPTYADDFKGRFVFSLDTSVSTAYLQISSLKAEDTAVYYCARIDYWGQGTTVTVSS
VL: DIVMTQSPLSLPVTPGEPASISCRSSQSLVHSNGNTYLHWYLQKPGQSPQLLIYKVSNRFSGVPDRFSGSGSGTDFTLKISRVEAEDVGVYYCFQSTHVPHTFGQGTKLEIKR
For B1, the binding entry is “binds”.
